Laboratory results as given in paper PMC12040169 (PLOS Biology, 2025).
Some of the results follow.

What follows are compounds tested on T1, CTL2-GFP (C. trachomatis L2/434/Bu, GFP-expressing). Details: bulk GFP, single well; 28.5 h, 10 µM; inhibitor.
T1 construct: L2/434/Bu, GFP-expressing
Design: species or system HeLa; Intracellular C. trachomatis growth in HeLa cells, bulk GFP fluorescence relative to DMSO

SMILES	% of control remaining [%]
Cc1ccc(-n2ncc3c2NC(=O)N2CCCN=C32)cc1 [CBK284416]	101.74
O=c1c(Cc2ccc(Cl)cc2)c(O)ccn1Cc1ccncc1 [CBK291161]	128.398
COc1cc(NC(=O)c2ccc3c(c2)C(=O)N(Cc2cccnc2)C3=O)c(C(=O)O)cc1OC [CBK266802]	129.778
O=C1COc2ccccc2C/C=C/CC2(CCN(C(=O)c3c[nH]cn3)CC2)C(=O)NCCN1 [CBK291990]	123.33
CCN(Cc1cncn1C)C(CC1CCCCC1)c1ccccc1 (stereo not shown) [CBK066815T]	81.7845
c1csc(CN2CCC(n3cnc4cccnc43)CC2)c1 [CBK283968]	105.859
O=C(Nc1cccc2cc[nH]c12)c1cccc(F)c1Cl [CBK160074]	99.7764
Nc1nc(Cc2ccc(F)cc2)no1 [CBK028717]	111.927
CN1C[C@@H](C(=O)N(C)C)[C@@]2(CCc3ccccc3C(=O)N2)C1 [CBK284792]	124.477
N=c1c2c(-c3ccccc3)c(-c3ccccc3)n(Cc3ccccc3)c2ncn1CCN1CCOCC1 [CBK268537]	38.9264
O=C(Cn1ccnc1)NC(c1ccc(Cl)cc1)c1cccnc1 (stereo not shown) [CBK281481]	120.488
Cc1nn(Cc2ccc(Cl)cc2)c(C)c1NC(=O)CSc1nc(-c2ccc(F)cc2)cc(C(F)(F)F)n1 [CBK266160]	148.156
CN(C)c1ccc(CC(=O)NC2Cc3ccccc3C2)cc1 [CBK200360]	124.93
CCCNC(=O)c1cc(C2CCCN(Cc3ccc(F)cc3)C2)no1 (stereo not shown) [CBK283387]	115.576
CC1(CNC(=O)c2ccccc2Cn2cccn2)COC1 [CBK281750]	152.161
O=C(CC(=O)Nc1c(Cl)cccc1C(F)(F)F)Nc1c(Cl)cccc1C(F)(F)F [CBK263148]	102.458
Cc1cc(/C=C2/NC(=S)NC2=O)c(C)n1-c1ccc(Sc2ccc([N+](=O)[O-])cc2)cc1 [CBK263883]	106.468
COc1ccc(C2(C)NC(=O)N(CC(=O)Nc3ccc(NC(C)=O)cc3)C2=O)cc1 (stereo not shown) [CBK295182]	138.806
Cn1c(COc2ccccc2)nnc1SCc1nnc(-c2ccccc2)o1 [CBK269628]	133.295
Nc1ncc(-c2ccc(Cl)cc2)c(C2CCCN(C(=O)C3CCCC3)C2)n1 (stereo not shown) [CBK285571]	141.249
CCCC(=O)NCCn1nc(-c2ccccc2F)cc1CN(C)C [CBK282000]	88.8705
COC(=O)c1c(NC(=S)Nc2ccc(CC(=O)O)cc2)sc(C)c1C [CBK267111]	182.605
CN(CC(=O)N1CCN(Cc2ccc3c(c2)OCO3)CC1)S(=O)(=O)c1ccc2ccccc2c1 [CBK267016]	119.07
NS(=O)(=O)c1ccc(Nc2c(C(=O)O)cc([N+](=O)[O-])cc2[N+](=O)[O-])cc1 [CBK261319]	108.982
Cn1c(SCC(=O)N2CCN(c3ccccc3)CC2)nnc1-c1cccc([N+](=O)[O-])c1 [CBK265209]	143.522
O=S(=O)(Nc1cccc(-c2cnco2)c1)c1ccc(Cl)c(Cl)c1 [CBK067117]	103.297

SMILES	% of control remaining [%]
CCc1cc(C(=O)N2CCCC(c3cc4ccccc4cn3)C2)on1 (stereo not shown) [CBK285156]	114.543
Cc1cc(NC(=O)c2ccc(S(=O)(=O)N(C)C)cc2)nc2c1c(=O)oc1ccccc12 [CBK291135]	110.462
O=C(/C=C/c1ccc(Cl)cc1Cl)NCCNc1c(Cl)cccc1[N+](=O)[O-] [CBK264295]	110.963
COc1ccc(C(=O)NNC(=O)/C=C/c2ccc(C(C)C)cc2)cc1 [CBK261697]	19.4008
N#Cc1ccc(NC(=O)c2ccc(-n3cnnc3)cc2Cl)cc1 [CBK269758]	126.602
Cc1cc(S)n2nc(C)c(-c3ccccc3)c2n1 [CBK288423]	98.6111
COc1ccc(C(=O)c2c(N)c(C(=O)Nc3ccccc3)c3ccccn23)cc1 [CBK300509]	169.538
CCCc1cc(C(=O)N2CCNCC2C(=O)N2CCN(C)CC2)ccn1 (stereo not shown) [CBK307619]	116.478
Cc1noc2nc(-c3ccccc3F)cc(C(=O)N3CCCC3c3nnc4ccccn34)c12 (stereo not shown) [CBK296756]	135.657
COc1cncc(-c2cc(Nc3ccc(O)cc3C)ncn2)c1 [CBK091061]	102.175
Cn1ccnc1CN1CCC2(CC1)CC(C(=O)O)N(C(=O)C1CC1)C2 (stereo not shown) [CBK306986]	106.814
O=C(c1cc(-c2ccccc2)n[nH]c1=O)N1CCc2ccccc2C1 [CBK291216]	128.929
O=C(O)c1ccc2c(c1)C(=O)N(c1nc(-c3cccnc3)n[nH]1)C2=O [CBK268284]	110.844
N=c1c2c3c(sc2ncn1CCCN1CCOCC1)CCCC3 [CBK268323]	112.774
Cc1ccc(S(=O)(=O)Nc2ccc3c(c2)CC(=O)N3)cc1 [CBK287657]	110.518
O=C(Nc1cc(Oc2cccnc2)cc([N+](=O)[O-])c1)c1sc2ccccc2c1Cl [CBK300485]	114.597
Cc1ccc(S(=O)(=O)c2ccccc2)cc1S(=O)(=O)NCc1ccncc1 [CBK270073]	91.4167
COc1ccc(C(=O)Nc2nc3ccc(S(N)(=O)=O)cc3s2)cc1 [CBK291147]	108.957
CC(C)(C)C1=CC2=NC3(CCS(=O)(=O)CC3)[C@@H]3C[C@@H](O)[C@@H](O)[C@@H]3N2O1 [CBK303247]	128.382
Cc1nnc(CN(CC2CCCO2)C2CCC(C)CC2)n1C (stereo not shown) [CBK305548]	150.061
COc1cccc(NC(=O)c2ccc(-c3cc(C(F)(F)F)cc(C(F)(F)F)c3)nc2N(C)C)c1 [CBK106028]	79.3263
CCc1nc2c(OCc3ccccc3)cccn2c1N(C)C(=O)Nc1ccccc1OC [CBK147890]	150.948
Cc1ccc(NC(=O)COc2ccccc2)c(NC(=O)c2ccco2)c1 [CBK266809]	109.587
CN1CCN(C(=O)c2[nH]c3ccccc3c2NS(=O)(=O)Cc2ccccc2)CC1 [CBK050046]	92.6975
Cc1cccnc1NC(=O)COc1ccc(Cl)cc1 [CBK262175]	78.8723
COc1ccc(Br)cc1S(=O)(=O)n1ccnc1C [CBK264003]	128.215

Already shown: an excerpt of the list.
SMILES	% of control remaining [%]
CCc1cc(C(=O)N2CCCC(c3cc4ccccc4cn3)C2)on1 (stereo not shown) [CBK285156]	114.543
Cc1cc(NC(=O)c2ccc(S(=O)(=O)N(C)C)cc2)nc2c1c(=O)oc1ccccc12 [CBK291135]	110.462
O=C(/C=C/c1ccc(Cl)cc1Cl)NCCNc1c(Cl)cccc1[N+](=O)[O-] [CBK264295]	110.963
COc1ccc(C(=O)NNC(=O)/C=C/c2ccc(C(C)C)cc2)cc1 [CBK261697]	19.4008
N#Cc1ccc(NC(=O)c2ccc(-n3cnnc3)cc2Cl)cc1 [CBK269758]	126.602
Cc1cc(S)n2nc(C)c(-c3ccccc3)c2n1 [CBK288423]	98.6111
COc1ccc(C(=O)c2c(N)c(C(=O)Nc3ccccc3)c3ccccn23)cc1 [CBK300509]	169.538
CCCc1cc(C(=O)N2CCNCC2C(=O)N2CCN(C)CC2)ccn1 (stereo not shown) [CBK307619]	116.478
Cc1noc2nc(-c3ccccc3F)cc(C(=O)N3CCCC3c3nnc4ccccn34)c12 (stereo not shown) [CBK296756]	135.657
COc1cncc(-c2cc(Nc3ccc(O)cc3C)ncn2)c1 [CBK091061]	102.175
Cn1ccnc1CN1CCC2(CC1)CC(C(=O)O)N(C(=O)C1CC1)C2 (stereo not shown) [CBK306986]	106.814
O=C(c1cc(-c2ccccc2)n[nH]c1=O)N1CCc2ccccc2C1 [CBK291216]	128.929
O=C(O)c1ccc2c(c1)C(=O)N(c1nc(-c3cccnc3)n[nH]1)C2=O [CBK268284]	110.844
N=c1c2c3c(sc2ncn1CCCN1CCOCC1)CCCC3 [CBK268323]	112.774
Cc1ccc(S(=O)(=O)Nc2ccc3c(c2)CC(=O)N3)cc1 [CBK287657]	110.518
O=C(Nc1cc(Oc2cccnc2)cc([N+](=O)[O-])c1)c1sc2ccccc2c1Cl [CBK300485]	114.597
Cc1ccc(S(=O)(=O)c2ccccc2)cc1S(=O)(=O)NCc1ccncc1 [CBK270073]	91.4167

(listing goes on)

SMILES	% of control remaining [%]
Cc1c(C(=O)N2CCC(N3CCSCC3)CC2)[nH]c2c(F)cccc12 [CBK307065]	148.917
CCOc1ccc(NC(=O)C2C3C=CC(O3)C2C(=O)O)cc1 (stereo not shown) [CBK261592]	104.205
Cc1cccc(C)c1OCC(=O)Nc1cccc(Oc2ccc3c(c2)C(=O)N(c2ccccc2)C3=O)c1 [CBK265499]	110.467
O=C(Nc1ccccc1N1CCN(C(=O)c2ccc(Cl)cc2)CC1)c1ccc(-c2cccc([N+](=O)[O-])c2)o1 [CBK266398]	146.516
N#Cc1cccc(C(=O)N2CCCC3(CCN(C(=O)Cc4c[nH]c5ccccc45)C3)C2)c1 (stereo not shown) [CBK131581]	116.135
Cc1ccc(CNC(=O)OCCN2CCN(C)CC2)o1 [CBK200205]	154.412
Cc1nn(CC(=O)N(C)Cc2cnn(C)c2)c(=O)c2ccccc12 [CBK305701]	156.478
CCCn1cnc2cc(NC(=O)Cn3cccc(C(=O)NC4CCCCC4)c3=O)ccc21 [CBK286075]	118.895
Cc1cc(/C=N/O)c(C)c(COCc2cc(C)cc(/C=N/O)c2C)c1 [CBK261770]	115.873
Cc1nc2ccccc2c(SCCC(=O)O)c1Cc1ccccc1 [CBK144942T]	81.6506
CCCOc1ncccc1O [CBK001459]	101.176
COc1ccc(S(=O)(=O)Nc2nccnc2-c2ccc3[nH]ccc3c2)cc1 [CBK050805]	168.223
COc1cc2c(cc1OC)CN(C(=O)N(CCN)CCC(C)c1ccccc1)CC2 (stereo not shown) [CBK000612C]	116.113
Nc1nonc1-n1nnc(C(=O)N/N=C2\CCc3ccccc32)c1-c1ccccc1 [CBK261988]	100
CCCC(=O)Nc1ccc(OCc2ncc(C(C)(C)C)o2)c(C(C)=O)c1 [CBK305218]	145.352
CCCc1n[nH]c(C2CCCC2)c1C(=O)OCC [CBK115727]	103.486
O=C(NCc1ccc(-c2csnn2)cc1)c1ccc(Oc2ccccc2)cc1 [CBK149300]	98.8126
Cn1cc(CN2CCCN(C(=O)c3ccc4ccccc4n3)CC2)cn1 [CBK305369]	92.9738
CN(/N=C/c1cc(Br)cs1)c1ccc(Cl)nn1 [CBK028729]	123.1
O=C(NCc1ccc(OC2CCNCC2)cc1)c1cccs1 [CBK036353T]	112.612
Cc1ccc(S(=O)(=O)N(C)CCCC(=O)n2cnc3ccccc32)cc1 [CBK264457]	127.368
Cc1cnc2[nH]c(C(F)(F)F)c(CN3CCN(C)CC3)c2c1 [CBK284765]	153.097
COc1cccc(C(NC(=O)c2cc(CN3CCOCC3)c(C)o2)c2ccccc2)c1 (stereo not shown) [CBK286279]	120.781
CCN(CC(=O)NCc1cccs1)C(=O)CN1CCCC1c1ccc(C)cc1 (stereo not shown) [CBK297761]	146.517
